# Library screening results

Sequences of proteins named here, by UniProt entry; tags and fusion partners are left off.
UniProt E9BF75, entry or part of it: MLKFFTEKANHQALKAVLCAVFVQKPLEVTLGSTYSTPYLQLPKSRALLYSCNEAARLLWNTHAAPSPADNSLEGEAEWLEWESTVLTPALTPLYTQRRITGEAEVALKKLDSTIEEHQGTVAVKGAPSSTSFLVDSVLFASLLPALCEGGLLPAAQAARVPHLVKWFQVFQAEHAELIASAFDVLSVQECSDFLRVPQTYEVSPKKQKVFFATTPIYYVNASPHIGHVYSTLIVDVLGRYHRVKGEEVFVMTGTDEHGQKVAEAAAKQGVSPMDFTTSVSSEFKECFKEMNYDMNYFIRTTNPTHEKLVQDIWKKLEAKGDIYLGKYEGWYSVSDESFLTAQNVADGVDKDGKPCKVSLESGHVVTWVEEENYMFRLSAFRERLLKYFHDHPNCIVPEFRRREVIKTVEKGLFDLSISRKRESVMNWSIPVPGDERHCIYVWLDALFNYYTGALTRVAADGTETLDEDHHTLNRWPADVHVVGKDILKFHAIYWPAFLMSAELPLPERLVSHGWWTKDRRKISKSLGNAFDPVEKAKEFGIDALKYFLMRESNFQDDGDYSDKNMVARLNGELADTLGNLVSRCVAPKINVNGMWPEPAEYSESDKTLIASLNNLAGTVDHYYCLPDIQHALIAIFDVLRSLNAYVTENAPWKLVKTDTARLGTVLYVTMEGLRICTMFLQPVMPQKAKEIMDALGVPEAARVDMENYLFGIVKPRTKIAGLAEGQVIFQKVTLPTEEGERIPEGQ

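Primary screen of methionyl-tRNA synthetase; the read-out is not stated. Target: Methionyl-tRNA synthetase (putative), Leishmania donovani (UniProt E9BF75). The test concentration is not given. Values are per cent inhibition. Of about 68,000 compounds tested this way, about 24 (0.035%) reached 50% or more in at least one test.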

All values are in %. The record does not define 0% and 100%; most values in the screen are far below 50% and negative numbers occur (in some assays of this library far below -100). The compounds are a random part of those screened.

structure,Inhibition
Cc1cc(C2CCCN(C(=O)c3cccnc3)C2)ccn1 (stereo not drawn),7.812
CCc1ccc(C(=O)N2CCN(CC(O)CC)CC2)o1 (stereo not drawn),-1441
CCC(NC(=O)c1cccc(N2CCCC2=O)c1)c1ccc(OC)cc1 (stereo not drawn),-1.229
CC(Cn1cccn1)NC(=O)NCCN1CCc2ccccc2C1 (stereo not drawn),7.971
CCC(=O)NCC(=O)NCC1CCN(c2cc(Cl)ccc2C)C1 (stereo not drawn),21.7
Cc1cnccc1N1CCCN(C(=O)CCn2ccnc2C)CC1,15.46
Cc1nn(CC(C)C)c(N(C)C)c1CNCc1cc2ccccc2[nH]1,14.38
Cc1noc([C@@H]2C[C@H](NS(=O)(=O)Cc3ccccc3)CN2C)n1,14.29
Clc1cnccc1NCc1cccc(COC2CCOCC2)c1,8.696
CC1=N[C@@]2(CC[C@@H]3CN(S(=O)(=O)CC(C)C)C[C@@H]32)C(=O)N1CC(C)C,19.19
Cn1cc(C(=O)N2CCCCC2CCc2ccccc2)cn1 (stereo not drawn),6.948
Cc1cc(C(=O)N2CCc3nnc(N)cc3C2)c(C)n1C1CC1,24.31
CN1C(=O)C(c2cccnc2)CC12CCN(C(=O)c1cccn1C)CC2 (stereo not drawn),6.276
Cc1nc(C)n(CC2CN(CC(=O)Nc3cccnc3)CCO2)n1 (stereo not drawn),17.7
CN(C)CCN1CCCC12CCCN(C(=O)c1cccnc1)C2 (stereo not drawn),19.55
OC1(CNCCN2CCc3ccccc32)CNCCOC1 (stereo not drawn),27.88
Cc1cnn(C2CN(CC(=O)Nc3cccnc3)C2)c1,17.32
CC1CN(C)CCN1C(=O)c1ccn(-c2ccccc2Cl)n1 (stereo not drawn),5.413
Cc1ccccc1CN1CCOC(c2nccc(CN(C)C)n2)C1 (stereo not drawn),19.21
O=C(c1ccc[nH]1)N1CCCC2(CCN(c3ccsc3)C2=O)C1 (stereo not drawn),11.76
CN(CCn1cccn1)S(=O)(=O)c1ccc(C#N)cc1,15.92
CCC(O)CN1CCN(C(=O)Cc2ccc(C)nc2)CC1 (stereo not drawn),19.13
O=S(=O)(NCc1ccccc1)N1CCCN(c2ccncc2)CC1,6.213
NC1CCCCN(Cc2cc(C3CCCCC3)no2)C1 (stereo not drawn),14.29
Cc1ccc(C(=O)N2CCC3(CCC(=O)N(CC(N)=O)C3)CC2)c(O)c1,10.62
Cn1cc(NCCOc2ccc(F)cc2)cn1,11.05
Cc1[nH]nc2ncc(C(=O)N3CCN(CCC(C)C)CC3)cc12,5.714
CC1(C)[C@H](Cc2cc(CN3CCCCC3)on2)C[C@@H]1NS(C)(=O)=O,9.446
Cc1nc(C2CCCN(C(=O)CCn3ccccc3=O)C2)no1 (stereo not drawn),13.97
CCOCCCC(=O)Nc1[nH]nc(-c2ccncc2)c1C,11.87
COCCn1c(C(=O)NCc2n[nH]c(C)n2)cc2ccccc21,15.07
Cc1ccnc(C2CCN(C(=O)CCn3ncc4ccccc43)C2)n1 (stereo not drawn),12.9
COc1cc(CCC(=O)NC(C)(C)C)ccc1OCC(F)(F)F,17.71
Cc1ccncc1-n1cc(CCO)cn1,4.375
Cn1ccc(CNC(=O)Nc2ccc(S(=O)(=O)C(F)F)cc2)c1,26.57
N#Cc1cccnc1N1CCCN(C(=O)CCn2cccn2)CC1,24.5
O=C(c1cccc2c1OCO2)N1CCCC1c1noc(C2CC2)n1 (stereo not drawn),-0.4695
CSC(C)(C)CNC(=O)NCC[S+]([O-])c1ccccc1 (stereo not drawn),11.42
Cc1csc(C(C)(C)NCc2ncc(-c3ccccc3)o2)n1,4.693
CC(C)c1n[nH]c(C2CN(C(=O)c3cc(C4CC4)[nH]n3)CCO2)n1 (stereo not drawn),8.571
CCOC[C@@H]1CCC[C@@]12CN(Cc1nccs1)CCO2,10.1
CCc1ccc(C(=O)N2CCCC(n3nc(C)nc3C)C2)o1 (stereo not drawn),7.895
CC(=O)N1CCCN(C(=O)CCc2c(C)noc2C)CC1,10.2
COc1cccc(C(=O)N2CCN(Cc3nc(C(C)C)no3)CC2)c1,20.56
COc1ccc(NC(=O)N(CCO)Cc2ccsc2)c(OC)c1,-4.715
CC(C)(NC(=O)C1CCN(C2CCCCC2)CC1)c1nnc(N)s1,5.974
COCc1noc(Cn2c(C3CC3)nc3ccccc32)n1,5.497
CCc1ccc(C(=O)O)cc1S(=O)(=O)Nc1c(C)ccn(C)c1=O,10.87
CN(CCNC(=O)c1ccnc(-n2ccnc2)c1)C1CC1,-15.63
COC(=O)c1ccc(N2CCN(CCS(C)(=O)=O)C(C)C2)cc1 (stereo not drawn),10.89
Cc1cc(=O)[nH]c(=O)n1COCCOCc1ccccc1,8.115
CCC(C)(NCC(=O)NC(C)C)c1nccs1 (stereo not drawn),4.819
CCOCCN1CCC(C(=O)c2cc(F)ccc2F)CC1,12.85
CCn1nc2c(cc1=O)CN(Cc1nc(-c3ccoc3)no1)CC2,7.532
Nc1nc2c(c(NCc3ccc(C(=O)N4CCCC4)cc3)n1)CCCC2,18.55
CC(C)NC(=O)CN(C)C1CCN(c2ccc(C#N)cn2)CC1,14.93
CCS(=O)(=O)N1CC[C@@H]2[C@H](CC1)N(CC(C)C)CCS2(=O)=O,10.03
O=C1CCC2(CCN(CCSc3ccccc3)CC2)CN1CCCO,4.902
CC(C(N)=O)N1CCc2onc(-c3cccc(F)c3)c2C1 (stereo not drawn),10.56
CC(=O)Nc1cnc(Oc2ccccc2F)nc1,10.07
COc1cc(C2CC(=O)Oc3cc(C)[nH]c(=O)c32)ccc1OCC(=O)O (stereo not drawn),13.51
CCOC(=O)CNC(=O)c1cc2n(n1)CCCO2,19.88
O=C(c1cocn1)N1C[C@@H]2CN(CC3CC3)CCO[C@@H]2C1,10.47
CN1CC(=O)N(C2CCC2)Cc2c(NC3CCNCC3)ncnc21,9.143
CC(C(=O)N1CCCC1)S(=O)(=O)Cc1noc(C(C)(C)C)n1 (stereo not drawn),6.361
CCCNCc1ccc(OCc2ccc3c(c2)OCCO3)cc1,15.3
CCOCc1nn(CC2CC2)c2c1CN(Cc1ccco1)CC2,7.778
Cc1ccsc1CN(C)c1cc(N2CCOCC2)ncn1,5.867
Cc1cc(N2CCN(Cc3ccccc3)CC(O)C2)cc(C)n1 (stereo not drawn),8.333
CN(C)c1cc(CNC(=O)c2c(F)cccc2F)ccn1,21.08
NC(=O)NC(=O)CN1CCN(CC2CC2)c2ccccc21,10.2

Some entries from above, unchanged:

| structure | Inhibition |
|---|---|
| `CCc1ccc(C(=O)N2CCN(CC(O)CC)CC2)o1` (stereo not drawn) | -1441 |
| `OC1(CNCCN2CCc3ccccc32)CNCCOC1` (stereo not drawn) | 27.88 |
| `Cc1nc(C2CCCN(C(=O)CCn3ccccc3=O)C2)no1` (stereo not drawn) | 13.97 |
| `Cc1ccccc1CN1CCOC(c2nccc(CN(C)C)n2)C1` (stereo not drawn) | 19.21 |
| `CSC(C)(C)CNC(=O)NCC[S+]([O-])c1ccccc1` (stereo not drawn) | 11.42 |
| `Cc1[nH]nc2ncc(C(=O)N3CCN(CCC(C)C)CC3)cc12` | 5.714 |
| `Cc1ccsc1CN(C)c1cc(N2CCOCC2)ncn1` | 5.867 |

Data taken from ChEMBL document CHEMBL3988442, “University of Dundee, Small-Polar-MMV Screening Library” (2021).